The source of these data is paper PMC7102948.

The chains behind the UniProt entries cited, without tags or fusion partners. Where a name states a change or a piece, a line headed by the entry shows the natural chain unless it says otherwise.
UniProt O04492: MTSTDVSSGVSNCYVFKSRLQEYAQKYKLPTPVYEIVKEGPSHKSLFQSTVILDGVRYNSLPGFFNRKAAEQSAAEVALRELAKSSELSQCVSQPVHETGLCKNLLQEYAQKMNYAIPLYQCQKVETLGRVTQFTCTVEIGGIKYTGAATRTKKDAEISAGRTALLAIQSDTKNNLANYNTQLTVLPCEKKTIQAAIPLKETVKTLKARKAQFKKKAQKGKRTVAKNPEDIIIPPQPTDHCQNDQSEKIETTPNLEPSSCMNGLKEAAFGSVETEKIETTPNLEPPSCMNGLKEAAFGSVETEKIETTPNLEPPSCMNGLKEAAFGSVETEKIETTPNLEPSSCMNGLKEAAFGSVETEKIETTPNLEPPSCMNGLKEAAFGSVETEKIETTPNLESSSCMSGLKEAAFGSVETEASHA

Data set [1] has as its target T1, AtHYL1 dsRBD1 S18N/Y23L peptide (Arabidopsis thaliana) (UniProt O04492).
T1 sequence: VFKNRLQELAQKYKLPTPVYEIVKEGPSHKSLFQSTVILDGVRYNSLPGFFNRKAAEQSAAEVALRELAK
The data set is described as follows: EMSA. Conditions: 5 mM Mg2+, 83 mM Tris pH 8 (printed 'Tris pH 8, 83 mM'), 100 mM NaCl, 66 mM KCl, 5 mM MgCl2, 5 mM DTT, 25 C, 30 min, 4% TBE gel run cold, label: 32P 5'-end. For orientation: In EMSA bound probe runs differently from free probe, usually more slowly.

Data set [2] addresses T2, AtHYL1 dsRBD1 WT peptide (Arabidopsis thaliana) (UniProt O04492).
T2 sequence: T1 sequence with N4S, L9Y
The data set can be described thus: EMSA. Conditions: 5 mM Mg2+, 83 mM Tris pH 8 (printed 'Tris pH 8, 83 mM'), 100 mM NaCl, 66 mM KCl, 5 mM MgCl2, 5 mM DTT, 25 C, 30 min, 4% TBE gel run cold, label: 32P 5'-end.

Where a chain is given by its changes, count along the chain named. Construct, isoform or probe ends are uncertain for at least one entry. For some of these results: A negative result means that nothing was seen under these conditions. Tags and fusion partners may be left off the protein sequences shown. Weaker means in comparison with the reference protein, sequence or condition of that experiment. At least one verdict was read from the data and is not stated in words by the source.

For “AGUGGAAGAGGCAUGCAGAGGAGGAAACUCCUGUGCUUGCCUCUUCCAUU [miR528 stem-loop modified]”, the binding result is “no binding” in data set [1] (binding abolished) and “binds” in data set [2] (complex did not enter the gel).
“UCGAACUAGGUCUCAGUGCUC / GAGCACUGUGACCUAGUUCGA [amiR52 duplex]”: the binding result in data set [1] (almost negligible) is listed as “binds more weakly”; in data set [2] it was “binds”.
Consider “UCGAACAGGGCGCCAGUGCCC / GGGCACUGCCGCCCUGUUCGA [amiR72 duplex (71% GC)]”, for which the binding result in data set [1] (almost negligible) and in data set [2] was “binds more weakly” each time.
In the case of “UUAUUAAUUUCGGCCCCGGCG / CGCCGGGCCCGAAAUUAAUAA [amiRscr52 duplex]”, the binding result in data set [1] (almost negligible) and in data set [2] was “binds more weakly” in each case.
Consider “UCGAAUAAGAUACUAUACGUU / AACGUAUACUAUCUUAUUCGA [amiR28 duplex]”, for which the binding result in data set [1] (almost negligible) and in data set [2] was “binds more weakly” each time.
